The list shows a part of the results.
Key:
Test in all cases: log2 fold change, soluble protein after heating vs DMSO (PISA); higher = thermal stabilisation; K562 cells, 10 uM, 30 min; active = over 0.2 and 3.5 SD of the protein, either way, in both replicates (recomputed)
[1] = compound: CC[C@@H]1C(=O)N(C)c2cnc(Nc3ccc(C(=O)NC4CCN(C)CC4)cc3OC)nc2N1C1CCCC1
How it was run: (§1)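 Values are thermal stability changes relative to control samples and are taken from duplicates. They are stated as log2 fold changes. Before quantification by TMTpro 16plex LC-MS/MS with equalised channel sums, K562 cells at 2×10^6 cells/mL were treated with 10 μM compound for 30 min, heated in aliquots for 3 min across 48°C-58°C, pooled, extracted in PBS with 0.5% NP-40 at 4°C, and centrifuged at 21,000xg for 90 min to give the soluble supernatant.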

Protein sequences, listed by entry. Tags and fused reporters are not part of them. Lines headed by an entry give the natural chain unless they say otherwise; changes in a name come on top.
UniProt Q96I15: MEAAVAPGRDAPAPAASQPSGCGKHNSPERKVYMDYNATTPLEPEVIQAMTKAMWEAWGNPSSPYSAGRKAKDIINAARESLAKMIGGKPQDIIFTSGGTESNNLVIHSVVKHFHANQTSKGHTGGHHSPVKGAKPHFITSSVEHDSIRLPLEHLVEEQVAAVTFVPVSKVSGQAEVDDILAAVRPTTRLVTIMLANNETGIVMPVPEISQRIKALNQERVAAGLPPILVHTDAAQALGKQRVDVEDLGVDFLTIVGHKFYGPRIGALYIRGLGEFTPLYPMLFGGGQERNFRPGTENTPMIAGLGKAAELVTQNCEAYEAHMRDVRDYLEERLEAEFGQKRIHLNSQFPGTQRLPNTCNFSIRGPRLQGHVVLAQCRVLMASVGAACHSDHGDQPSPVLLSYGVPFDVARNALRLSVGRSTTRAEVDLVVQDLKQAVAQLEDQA
UniProt Q8WTV0: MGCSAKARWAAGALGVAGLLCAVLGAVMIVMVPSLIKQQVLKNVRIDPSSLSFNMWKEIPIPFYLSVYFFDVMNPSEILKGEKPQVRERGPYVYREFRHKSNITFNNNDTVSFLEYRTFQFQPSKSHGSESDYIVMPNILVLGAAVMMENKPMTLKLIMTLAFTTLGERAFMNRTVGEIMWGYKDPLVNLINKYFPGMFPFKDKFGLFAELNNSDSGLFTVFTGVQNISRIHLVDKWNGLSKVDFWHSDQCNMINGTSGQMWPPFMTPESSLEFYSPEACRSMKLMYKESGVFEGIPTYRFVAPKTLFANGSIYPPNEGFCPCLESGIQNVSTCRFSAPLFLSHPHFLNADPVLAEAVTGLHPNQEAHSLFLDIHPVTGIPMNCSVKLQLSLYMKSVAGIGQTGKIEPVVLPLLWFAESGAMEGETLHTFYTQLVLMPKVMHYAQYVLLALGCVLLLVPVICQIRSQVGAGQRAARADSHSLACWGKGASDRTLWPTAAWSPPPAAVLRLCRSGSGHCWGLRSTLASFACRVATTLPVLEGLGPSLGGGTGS
UniProt O75298: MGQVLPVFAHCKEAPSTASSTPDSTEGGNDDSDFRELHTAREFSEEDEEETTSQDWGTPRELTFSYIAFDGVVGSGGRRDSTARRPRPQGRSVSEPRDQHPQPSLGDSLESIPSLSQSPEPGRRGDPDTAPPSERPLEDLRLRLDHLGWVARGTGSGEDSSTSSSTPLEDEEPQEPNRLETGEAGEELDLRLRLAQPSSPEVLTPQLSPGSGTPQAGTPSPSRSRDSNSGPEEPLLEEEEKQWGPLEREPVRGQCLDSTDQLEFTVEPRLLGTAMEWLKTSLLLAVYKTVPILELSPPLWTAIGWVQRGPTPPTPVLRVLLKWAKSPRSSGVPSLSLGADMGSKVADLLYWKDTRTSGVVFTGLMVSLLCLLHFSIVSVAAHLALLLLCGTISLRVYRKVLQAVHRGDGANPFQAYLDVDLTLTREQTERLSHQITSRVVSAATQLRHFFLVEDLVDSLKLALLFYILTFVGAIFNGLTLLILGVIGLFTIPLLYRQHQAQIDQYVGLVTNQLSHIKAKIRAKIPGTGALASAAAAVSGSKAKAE
UniProt Q9Y512: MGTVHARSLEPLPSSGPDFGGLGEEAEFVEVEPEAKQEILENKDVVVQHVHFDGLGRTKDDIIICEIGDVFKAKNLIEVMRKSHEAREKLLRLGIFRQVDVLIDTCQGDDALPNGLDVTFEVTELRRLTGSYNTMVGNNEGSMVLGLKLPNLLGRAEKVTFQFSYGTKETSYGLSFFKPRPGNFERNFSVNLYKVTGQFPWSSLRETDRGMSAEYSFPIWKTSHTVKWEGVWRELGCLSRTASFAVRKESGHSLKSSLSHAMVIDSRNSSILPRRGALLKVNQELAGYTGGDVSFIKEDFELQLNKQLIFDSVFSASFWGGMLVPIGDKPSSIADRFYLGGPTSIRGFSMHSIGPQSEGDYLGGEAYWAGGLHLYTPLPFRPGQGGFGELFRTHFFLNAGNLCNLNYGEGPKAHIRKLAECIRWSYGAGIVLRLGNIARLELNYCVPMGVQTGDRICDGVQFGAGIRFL
UniProt Q8WU76: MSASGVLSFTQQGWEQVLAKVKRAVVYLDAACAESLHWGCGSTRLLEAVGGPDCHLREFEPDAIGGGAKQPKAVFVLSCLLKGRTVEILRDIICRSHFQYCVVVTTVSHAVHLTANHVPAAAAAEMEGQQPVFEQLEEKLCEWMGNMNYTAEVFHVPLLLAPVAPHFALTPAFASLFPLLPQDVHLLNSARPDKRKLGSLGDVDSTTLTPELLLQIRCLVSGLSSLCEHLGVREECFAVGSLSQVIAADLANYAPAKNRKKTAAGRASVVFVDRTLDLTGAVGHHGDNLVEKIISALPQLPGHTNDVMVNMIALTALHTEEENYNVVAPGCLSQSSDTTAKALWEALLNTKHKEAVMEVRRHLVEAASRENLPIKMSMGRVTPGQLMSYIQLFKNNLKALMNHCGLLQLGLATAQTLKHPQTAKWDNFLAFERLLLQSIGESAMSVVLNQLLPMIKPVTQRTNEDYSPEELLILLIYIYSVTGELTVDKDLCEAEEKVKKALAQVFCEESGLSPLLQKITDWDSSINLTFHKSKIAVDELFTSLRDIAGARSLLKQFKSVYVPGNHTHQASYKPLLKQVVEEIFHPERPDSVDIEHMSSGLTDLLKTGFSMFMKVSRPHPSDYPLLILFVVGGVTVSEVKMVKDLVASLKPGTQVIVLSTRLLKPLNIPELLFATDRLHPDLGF
UniProt Q9Y6Y8: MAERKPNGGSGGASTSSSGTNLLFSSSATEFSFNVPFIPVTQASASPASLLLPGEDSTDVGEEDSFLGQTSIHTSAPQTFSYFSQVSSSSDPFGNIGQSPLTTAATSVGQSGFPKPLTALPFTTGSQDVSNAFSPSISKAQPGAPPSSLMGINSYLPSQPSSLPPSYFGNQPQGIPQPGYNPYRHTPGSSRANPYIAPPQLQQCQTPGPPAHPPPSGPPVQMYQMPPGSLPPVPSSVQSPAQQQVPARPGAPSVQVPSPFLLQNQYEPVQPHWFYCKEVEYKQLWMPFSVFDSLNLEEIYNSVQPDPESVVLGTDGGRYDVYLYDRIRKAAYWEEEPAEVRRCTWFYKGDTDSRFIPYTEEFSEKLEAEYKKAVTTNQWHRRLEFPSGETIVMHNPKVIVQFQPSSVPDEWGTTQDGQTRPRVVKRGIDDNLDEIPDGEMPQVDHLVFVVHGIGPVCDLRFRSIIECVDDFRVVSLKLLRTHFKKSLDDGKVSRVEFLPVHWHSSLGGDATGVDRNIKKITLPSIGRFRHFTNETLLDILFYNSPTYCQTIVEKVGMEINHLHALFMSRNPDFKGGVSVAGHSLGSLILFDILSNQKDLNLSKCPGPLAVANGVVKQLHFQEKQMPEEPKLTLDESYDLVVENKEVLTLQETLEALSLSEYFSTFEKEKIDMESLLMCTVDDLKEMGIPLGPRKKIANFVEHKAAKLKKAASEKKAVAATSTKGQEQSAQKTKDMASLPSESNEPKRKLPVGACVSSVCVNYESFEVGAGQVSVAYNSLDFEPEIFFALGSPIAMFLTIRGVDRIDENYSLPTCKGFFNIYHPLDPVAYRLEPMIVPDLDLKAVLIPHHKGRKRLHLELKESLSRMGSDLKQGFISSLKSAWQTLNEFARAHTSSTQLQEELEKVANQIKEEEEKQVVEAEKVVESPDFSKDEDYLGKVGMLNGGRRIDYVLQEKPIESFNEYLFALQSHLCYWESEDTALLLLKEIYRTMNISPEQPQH
UniProt Q96GA7: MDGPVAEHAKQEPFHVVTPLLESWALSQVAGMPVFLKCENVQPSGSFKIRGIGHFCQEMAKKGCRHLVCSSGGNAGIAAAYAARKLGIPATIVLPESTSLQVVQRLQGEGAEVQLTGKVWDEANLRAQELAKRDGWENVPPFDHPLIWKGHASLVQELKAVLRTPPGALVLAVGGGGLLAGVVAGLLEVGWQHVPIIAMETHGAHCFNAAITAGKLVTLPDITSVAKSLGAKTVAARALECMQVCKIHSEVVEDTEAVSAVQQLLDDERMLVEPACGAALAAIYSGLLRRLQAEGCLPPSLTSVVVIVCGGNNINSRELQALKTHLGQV
UniProt O00442: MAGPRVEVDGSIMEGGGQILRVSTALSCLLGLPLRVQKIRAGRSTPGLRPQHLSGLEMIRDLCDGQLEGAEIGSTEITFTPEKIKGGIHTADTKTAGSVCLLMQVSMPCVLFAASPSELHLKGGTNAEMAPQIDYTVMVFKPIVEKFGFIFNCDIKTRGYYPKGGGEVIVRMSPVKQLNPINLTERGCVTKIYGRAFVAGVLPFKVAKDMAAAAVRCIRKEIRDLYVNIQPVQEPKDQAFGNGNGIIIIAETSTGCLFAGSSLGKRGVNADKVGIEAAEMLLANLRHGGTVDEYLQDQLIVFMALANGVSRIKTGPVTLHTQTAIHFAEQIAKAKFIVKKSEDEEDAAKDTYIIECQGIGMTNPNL
UniProt Q9NQC3: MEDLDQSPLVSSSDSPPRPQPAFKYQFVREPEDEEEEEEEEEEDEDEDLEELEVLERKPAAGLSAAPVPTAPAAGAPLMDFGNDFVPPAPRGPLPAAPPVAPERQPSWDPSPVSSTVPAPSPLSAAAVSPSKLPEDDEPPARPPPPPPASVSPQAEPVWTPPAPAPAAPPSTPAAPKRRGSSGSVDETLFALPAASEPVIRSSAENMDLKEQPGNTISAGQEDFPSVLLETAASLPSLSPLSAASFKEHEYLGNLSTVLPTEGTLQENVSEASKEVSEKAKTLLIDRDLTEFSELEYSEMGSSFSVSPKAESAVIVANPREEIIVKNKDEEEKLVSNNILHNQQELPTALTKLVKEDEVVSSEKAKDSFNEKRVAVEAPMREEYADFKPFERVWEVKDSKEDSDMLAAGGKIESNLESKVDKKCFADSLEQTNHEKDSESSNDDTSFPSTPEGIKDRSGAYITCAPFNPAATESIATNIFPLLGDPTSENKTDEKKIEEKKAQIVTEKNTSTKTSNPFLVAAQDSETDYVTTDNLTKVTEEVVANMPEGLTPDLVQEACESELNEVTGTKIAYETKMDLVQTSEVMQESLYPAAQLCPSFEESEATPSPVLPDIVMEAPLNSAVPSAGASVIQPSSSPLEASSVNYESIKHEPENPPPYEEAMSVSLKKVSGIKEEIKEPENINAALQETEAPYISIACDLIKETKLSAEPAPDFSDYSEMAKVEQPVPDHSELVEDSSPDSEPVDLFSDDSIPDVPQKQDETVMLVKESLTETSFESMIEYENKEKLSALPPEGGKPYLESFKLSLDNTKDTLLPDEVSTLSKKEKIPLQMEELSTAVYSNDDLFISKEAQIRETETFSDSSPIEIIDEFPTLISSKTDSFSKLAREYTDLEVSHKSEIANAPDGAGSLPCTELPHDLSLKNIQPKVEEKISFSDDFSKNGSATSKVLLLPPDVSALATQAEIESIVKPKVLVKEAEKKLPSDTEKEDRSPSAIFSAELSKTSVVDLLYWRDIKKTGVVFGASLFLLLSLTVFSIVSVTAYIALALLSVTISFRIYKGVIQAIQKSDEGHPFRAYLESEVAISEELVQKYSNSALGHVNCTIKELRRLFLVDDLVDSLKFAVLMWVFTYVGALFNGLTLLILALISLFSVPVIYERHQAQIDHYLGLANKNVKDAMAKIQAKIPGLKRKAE
UniProt Q9H446: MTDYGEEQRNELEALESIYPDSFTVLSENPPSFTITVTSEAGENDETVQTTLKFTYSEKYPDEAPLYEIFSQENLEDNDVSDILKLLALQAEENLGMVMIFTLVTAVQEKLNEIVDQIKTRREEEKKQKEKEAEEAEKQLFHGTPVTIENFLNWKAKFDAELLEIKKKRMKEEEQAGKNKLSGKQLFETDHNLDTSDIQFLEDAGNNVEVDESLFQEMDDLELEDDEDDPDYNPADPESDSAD
UniProt O15127: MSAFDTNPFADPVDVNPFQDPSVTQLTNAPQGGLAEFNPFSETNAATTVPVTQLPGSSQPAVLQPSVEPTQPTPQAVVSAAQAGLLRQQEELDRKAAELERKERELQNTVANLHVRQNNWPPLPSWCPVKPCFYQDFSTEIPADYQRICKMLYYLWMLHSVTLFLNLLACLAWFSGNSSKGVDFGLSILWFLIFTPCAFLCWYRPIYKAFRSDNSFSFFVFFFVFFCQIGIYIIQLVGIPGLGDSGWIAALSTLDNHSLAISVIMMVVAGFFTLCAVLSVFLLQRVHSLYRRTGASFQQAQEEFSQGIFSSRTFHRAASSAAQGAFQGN
UniProt Q9NRP4: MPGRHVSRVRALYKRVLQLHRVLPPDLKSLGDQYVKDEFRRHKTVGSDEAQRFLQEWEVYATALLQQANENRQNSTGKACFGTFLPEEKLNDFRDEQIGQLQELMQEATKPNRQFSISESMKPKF
UniProt Q9Y3B9: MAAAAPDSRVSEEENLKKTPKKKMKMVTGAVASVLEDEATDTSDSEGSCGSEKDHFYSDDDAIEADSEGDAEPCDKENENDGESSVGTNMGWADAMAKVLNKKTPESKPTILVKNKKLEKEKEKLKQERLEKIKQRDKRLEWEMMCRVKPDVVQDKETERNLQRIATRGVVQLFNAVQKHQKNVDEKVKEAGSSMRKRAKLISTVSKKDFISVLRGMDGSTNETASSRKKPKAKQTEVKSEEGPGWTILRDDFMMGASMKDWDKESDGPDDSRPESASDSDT

volasertib = compound: CC[C@@H]1C(=O)N(C)c2cnc(Nc3ccc(C(=O)N[C@H]4CC[C@H](N5CCN(CC6CC6)CC5)CC4)cc3OC)nc2N1C(C)C [volasertib]
How it was run: as §1

[2] = compound: CC[C@H](C)N1C=C(C2=C(C=C(C=C21)C3=CN=C(C=C3)N4CCNCC4)C(=O)NCC5=C(C=C(NC5=O)C)C)C
How it was run: as §1

epoxomicin = compound: CC[C@H](C)[C@@H](C(=O)N[C@@H]([C@@H](C)O)C(=O)N[C@@H](CC(C)C)C(=O)[C@]1(CO1)C)NC(=O)[C@H]([C@@H](C)CC)N(C)C(=O)C [epoxomicin]
How it was run: as §1

[3] = compound: CCn1c(C(=O)N(C2CC2)C2CC2)cc2c3c(ncn3C)c(Nc3cc(C)n(C)n3)nc21
How it was run: as §1

[4] = compound: CCn1cc(-c2ccnc3[nH]c(-c4cccc(CN(C)C)c4)cc23)c(-c2ccc(NC(=O)N(C)C)cc2)n1
How it was run: as §1

[5] = compound: CN(C)CC(=O)Nc1ccc2[nH]c(=O)c3ccccc3c2c1
How it was run: as §1

rosiglitazone = compound: CN(CCOC1=CC=C(C=C1)C[C@H]2C(=O)NC(=O)S2)C3=CC=CC=N3 (racemic) [rosiglitazone]
How it was run: as §1

[6] = compound: CN1C2=C(C3=C1C(=O)N(N=C3)CC4=CC(=CC=C4)N)SC(=C2)S(=O)C
How it was run: as §1

[7] = compound: CN1CCC(CNc2ccc3ncc(-c4cccc(OC(F)(F)F)c4)n3n2)CC1
How it was run: as §1

Measured: log2 fold change

SCLY (UniProt Q96I15)
inactive: [1] 0.037 | volasertib -0.012 | [2] 0 | epoxomicin -0.011 | [3] 0.028 | [4] -0.027 | [5] -0.004 | rosiglitazone 0.017 | [6] -0.079 | [7] 0.032

RUVBL1 (UniProt Q9Y265)
inactive: [1] 0.069 | volasertib 0.242 | [2] -0.052 | epoxomicin -0.005 | [3] 0.019 | [4] 0 | [5] -0.028 | rosiglitazone -0.012 | [6] -0.026 | [7] 0.11

SEC24D isoform 2 (UniProt O94855)
inactive: [1] 0 | volasertib -0.094 | [2] 0.024 | epoxomicin 0.108 | [3] -0.047 | [4] -0.125 | [5] 0.036 | rosiglitazone 0.032 | [6] -0.006 | [7] 0.129

SCFD1 (UniProt Q8WVM8)
inactive: [1] -0.039 | volasertib -0.154 | [2] 0.095 | epoxomicin 0.024 | [3] -0.037 | [4] -0.005 | [5] 0.028 | rosiglitazone 0.047 | [6] 0.016 | [7] -0.042

SDE2 (UniProt Q6IQ49)
inactive: [1] -0.077 | volasertib -0.152 | [2] -0.058 | epoxomicin 0.044 | [3] -0.005 | [4] 0.011 | [5] 0.007 | rosiglitazone 0.037 | [6] -0.029 | [7] -0.067

RSBN1L (UniProt Q6PCB5)
inactive: [1] 0.263 | volasertib 0.484 | [2] 0.017 | epoxomicin -0.246 | [3] -0.016 | [4] 0.119 | [5] -0.096 | rosiglitazone -0.069 | [6] 0.344 | [7] 0.236

RTF1 (UniProt Q92541)
inactive: [1] -0.032 | volasertib -0.121 | [2] 0.059 | epoxomicin 0.09 | [3] -0.016 | [4] -0.034 | [5] 0.028 | rosiglitazone 0.019 | [6] -0.07 | [7] -0.044

S100A13 (UniProt Q99584)
inactive: [1] 0.009 | volasertib 0.083 | [2] 0.009 | epoxomicin -0.009 | [3] 0.014 | [4] 0.008 | [5] 0.004 | rosiglitazone 0.015 | [6] -0.061 | [7] -0.125

SCARB1 isoform 2 (UniProt Q8WTV0)
inactive: [1] -0.027 | volasertib -0.132 | [2] -0.018 | epoxomicin 0.011 | [3] 0.01 | [4] 0.03 | [5] 0.05 | rosiglitazone -0.017 | [6] -0.018 | [7] 0.116

SCO1 (UniProt O75880)
inactive: [1] -0.064 | volasertib -0.243 | [2] -0.019 | epoxomicin 0.005 | [3] 0.004 | [4] -0.016 | [5] -0.041 | rosiglitazone 0.007 | [6] -0.007 | [7] -0.074

SEC11C (UniProt Q9BY50)
inactive: [1] -0.005 | volasertib -0.054 | [2] 0.028 | epoxomicin 0.103 | [3] 0.041 | [4] 0.024 | [5] 0.006 | rosiglitazone 0.047 | [6] -0.012 | [7] -0.111

RTN2 (UniProt O75298)
inactive: [1] 0.035 | volasertib -0.043 | [2] 0.068 | epoxomicin 0.084 | [3] 0.049 | [5] 0.001 | rosiglitazone -0.011 | [6] -0.065

SAMM50 (UniProt Q9Y512)
inactive: [1] 0.007 | volasertib 0.033 | [2] -0.004 | epoxomicin 0.007 | [3] 0.053 | [4] -0.019 | [5] -0.021 | rosiglitazone -0.013 | [6] -0.025 | [7] -0.047

SCFD2 (UniProt Q8WU76)
inactive: [1] 0.04 | volasertib -0.065 | [2] 0.004 | epoxomicin -0.12 | [3] -0.032 | [4] 0.146 | [5] -0.06 | rosiglitazone -0.002 | [6] 0.184 | [7] 0.032

SEC23IP (UniProt Q9Y6Y8)
inactive: [1] -0.069 | volasertib -0.005 | [2] 0.032 | epoxomicin -0.009 | [4] -0.057 | [5] 0.012 | [6] -0.008 | [7] -0.133

SDSL (UniProt Q96GA7)
inactive: [1] 0.049 | volasertib 0.043 | [2] -0.031 | epoxomicin -0.001 | [3] -0.021 | [4] 0.017 | [5] 0.126 | rosiglitazone -0.01 | [6] -0.05 | [7] 0.006

SCAMP4 (UniProt Q969E2)
inactive: [1] 0.062 | volasertib -0.004 | [2] -0.061 | epoxomicin -0.03 | [3] -0.039 | [4] -0.074 | [5] -0.024 | rosiglitazone 0.002 | [6] -0.029 | [7] -0.005

SAE1 (UniProt Q9UBE0)
inactive: [1] -0.023 | volasertib -0.066 | [2] 0.006 | epoxomicin 0.038 | [3] -0.001 | [4] -0.045 | [5] 0.019 | rosiglitazone 0.023 | [6] -0.069 | [7] 0.025

RRS1 (UniProt Q15050)
inactive: [1] 0.291 | volasertib 0.286 | [2] 0.023 | epoxomicin -0.381 | [4] 0.143 | [5] -0.029 | [6] 0.28 | [7] 0.268

S100PBP (UniProt Q96BU1)
inactive: [1] -0.027 | volasertib 0.011 | [2] 0.01 | epoxomicin 0.113 | [3] 0.053 | [4] 0.047 | [5] 0.029 | rosiglitazone 0.062 | [7] 0.073

RTCA (UniProt O00442)
inactive: [1] -0.055 | volasertib -0.099 | [2] -0.018 | epoxomicin 0.029 | [3] 0.02 | [4] -0.035 | [5] 0.023 | rosiglitazone 0.006 | [6] -0.001 | [7] -0.08

RTN4 isoform 5 (UniProt Q9NQC3)
inactive: [1] -0.202 | volasertib -0.049 | [2] 0.014 | epoxomicin 0.13 | [3] 0.251 | [4] 0.022 | [5] 0.017 | [6] -0.134 | [7] 0.056

SDR39U1 (UniProt Q9NRG7)
inactive: [1] 0.35 | volasertib 0.24 | [2] -0.047 | epoxomicin -0.047 | [3] -0.022 | [4] 0.092 | [5] -0.112 | rosiglitazone -0.024 | [6] -0.069 | [7] -0.037

RWDD1 (UniProt Q9H446)
inactive: [1] -0.075 | volasertib -0.122 | [2] 0.015 | epoxomicin 0.041 | [3] 0.05 | [4] -0.035 | [5] 0.05 | rosiglitazone -0.001 | [6] -0.066 | [7] 0.02

SCAMP2 (UniProt O15127)
inactive: [1] -0.009 | volasertib 0.052 | [2] -0.01 | epoxomicin 0.001 | [4] 0.043 | [5] 0.061 | [6] -0.006 | [7] -0.1

SDHAF3 (UniProt Q9NRP4)
inactive: [1] -0.083 | volasertib 0.043 | [2] 0.002 | epoxomicin 0.039 | [3] 0.022 | [4] 0.041 | [5] 0.002 | rosiglitazone -0.018 | [6] -0.011 | [7] -0.182

SCNM1 (UniProt Q9BWG6)
inactive: [1] 0.223 | volasertib 0.141 | [2] 0.045 | epoxomicin 0 | [3] 0.016 | [4] 0.009 | rosiglitazone -0.013 | [6] 0.003 | [7] 0.066

RRP15 (UniProt Q9Y3B9)
inactive: [1] 0.014 | volasertib 0.046 | [2] -0.069 | epoxomicin -0.057 | [3] 0.044 | [4] 0.005 | [5] -0.012 | rosiglitazone -0.068 | [6] 0.002 | [7] 0.049

RUVBL2 (UniProt Q9Y230)
inactive: [1] 0.1 | volasertib 0.173 | [2] -0.032 | epoxomicin 0.01 | [3] 0.025 | [4] -0.043 | [5] 0.013 | rosiglitazone -0.035 | [6] -0.032 | [7] 0.172

SAR1B (UniProt Q9Y6B6)
inactive: [1] 0.033 | volasertib 0.033 | [2] -0.019 | epoxomicin 0.057 | [3] -0.019 | [4] -0.071 | [5] 0.04 | rosiglitazone 0.019 | [6] -0.095 | [7] 0.013

SBDS (UniProt Q9Y3A5)
inactive: [1] -0.053 | volasertib -0.079 | [2] 0.059 | epoxomicin 0.015 | [3] -0.044 | [4] -0.074 | [5] 0.045 | rosiglitazone 0.108 | [6] -0.055 | [7] -0.138

Source: the supplement of paper PMC10849652
